Assay results taken from patent US20150315292A1 (VANDERBILT UNIVERSITY, published 2015).
These are yes or no findings as the source states them, for the method shown. Some results given as binding are weak or reduced against the parent protein; the word gives no strength.

Columns and labels:
[1] = target: T1, human coagulation factor XII (human) (UniProt P00748); assay: Western blot of plasma after SDS-PAGE
T1 sequence (looked up): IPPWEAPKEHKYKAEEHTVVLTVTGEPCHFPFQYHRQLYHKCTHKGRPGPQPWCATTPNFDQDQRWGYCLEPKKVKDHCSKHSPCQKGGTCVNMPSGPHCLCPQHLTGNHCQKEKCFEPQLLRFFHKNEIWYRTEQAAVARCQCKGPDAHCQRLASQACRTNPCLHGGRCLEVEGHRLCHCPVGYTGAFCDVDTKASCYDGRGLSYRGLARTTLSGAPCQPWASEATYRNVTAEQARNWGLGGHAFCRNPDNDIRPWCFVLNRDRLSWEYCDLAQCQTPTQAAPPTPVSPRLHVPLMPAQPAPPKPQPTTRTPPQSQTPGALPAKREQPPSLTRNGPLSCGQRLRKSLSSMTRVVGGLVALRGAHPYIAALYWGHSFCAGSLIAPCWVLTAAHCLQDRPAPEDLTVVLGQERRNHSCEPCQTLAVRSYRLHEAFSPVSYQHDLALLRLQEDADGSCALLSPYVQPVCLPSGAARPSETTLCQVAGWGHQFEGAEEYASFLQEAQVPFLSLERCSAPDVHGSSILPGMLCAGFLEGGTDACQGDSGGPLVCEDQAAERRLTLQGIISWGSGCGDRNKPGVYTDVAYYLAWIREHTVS

[2] = target: T1, human coagulation factor XII (human); assay: summary of the Example 2 results (Western blots)
[3] = target: T2, human coagulation factor XIIa (human) (UniProt P00748); assay: summary of the Example 2 results (Western blots)
T2 sequence (looked up) 1: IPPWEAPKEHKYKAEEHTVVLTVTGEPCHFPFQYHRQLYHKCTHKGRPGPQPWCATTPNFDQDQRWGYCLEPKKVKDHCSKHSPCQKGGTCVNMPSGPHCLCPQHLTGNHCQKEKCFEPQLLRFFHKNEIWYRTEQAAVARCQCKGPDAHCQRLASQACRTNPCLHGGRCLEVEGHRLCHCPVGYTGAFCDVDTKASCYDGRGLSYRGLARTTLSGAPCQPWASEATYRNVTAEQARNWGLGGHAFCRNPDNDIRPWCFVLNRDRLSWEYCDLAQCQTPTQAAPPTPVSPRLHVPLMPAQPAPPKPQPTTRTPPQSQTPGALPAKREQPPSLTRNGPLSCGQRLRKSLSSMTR
T2 sequence (looked up) 2: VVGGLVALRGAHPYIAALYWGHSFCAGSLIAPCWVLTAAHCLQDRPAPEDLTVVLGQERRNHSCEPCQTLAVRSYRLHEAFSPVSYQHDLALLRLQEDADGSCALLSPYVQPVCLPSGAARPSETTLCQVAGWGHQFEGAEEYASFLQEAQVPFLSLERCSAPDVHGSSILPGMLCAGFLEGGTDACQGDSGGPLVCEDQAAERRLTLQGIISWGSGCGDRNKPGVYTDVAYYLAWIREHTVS

[4] = target: T1, human coagulation factor XII (human); assay: recombinant fXII lacking domains and fXII/HGFA chimeras
[5] = target: T2, human coagulation factor XIIa (human); assay: as above

Measured: binding

B1: monoclonal anti-human fXII antibody AB042 (antibody, V domains shown)
VH: EVQLQQSGAELVRPGASVKLSCTASGFNIKDDYMHWVKQRPEQGLEWIGWIDPENGDTEYASKFQGKATITSDTSSNTAYLQLSSLTSEDTAVYYCTENYYGSSFFAYWGQGTLVTVSA
VL: DIVMTQATPSVPVTPGESVSISCRSSKSLLHSNGITYLYWFLQRPGQSPQRLIYYMSNLASGVPDRFSGRGSGTDFTLRISRVEAEDVGVYYCMQSLEYPYTFGGGTKLEIKR
notes: Mouse hybridoma IgG raised in fXII knockout mice immunized with human fXII
binds: all assays above
